Assay results as given in patent US20260022195A1.
No constants are given. Whether binding was seen depends on the method and setting. Some results given as binding are weak or reduced against the parent protein; the word gives no strength.

Molecular target: T1, human C1s (active form) (human) (UniProt P09871)
T1 sequence 1: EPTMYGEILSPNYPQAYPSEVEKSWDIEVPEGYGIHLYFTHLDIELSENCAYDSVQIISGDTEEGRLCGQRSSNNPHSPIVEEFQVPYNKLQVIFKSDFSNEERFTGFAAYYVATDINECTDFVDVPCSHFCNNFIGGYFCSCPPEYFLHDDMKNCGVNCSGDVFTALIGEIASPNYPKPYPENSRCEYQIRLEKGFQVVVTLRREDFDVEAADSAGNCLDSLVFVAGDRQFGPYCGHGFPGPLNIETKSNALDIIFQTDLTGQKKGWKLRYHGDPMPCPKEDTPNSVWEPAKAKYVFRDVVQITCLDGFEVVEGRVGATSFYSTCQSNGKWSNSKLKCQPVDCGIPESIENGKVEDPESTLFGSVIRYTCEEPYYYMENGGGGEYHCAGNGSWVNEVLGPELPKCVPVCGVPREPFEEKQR
T1 sequence 2: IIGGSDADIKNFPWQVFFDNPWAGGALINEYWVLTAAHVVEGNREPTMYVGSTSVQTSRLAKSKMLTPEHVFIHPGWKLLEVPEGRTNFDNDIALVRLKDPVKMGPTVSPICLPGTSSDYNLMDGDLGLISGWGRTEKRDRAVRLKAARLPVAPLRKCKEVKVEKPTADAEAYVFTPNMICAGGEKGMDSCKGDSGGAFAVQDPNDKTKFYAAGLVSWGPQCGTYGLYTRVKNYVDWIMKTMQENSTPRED
Experiment: SPR, IgG captured on anti-Fc surface, C1s or proC1s_RQ as analyte

B1: MAB3 (antibody, V domains shown)
VH: EVQLVESGGGVVRPGGSLRLSCAASGFTFDDYGMSWVRQAPGKGLEWVSGINWEGGSTGYADSVKGRFTISRDNAKNSLYLQMNSLRAEDTALYYCARDEQLGGNYYYYYYMDVWGKGTTVTVSS
VL: DIQMTQSPSSLSASVGDRVTITCRASQGIRNDLGWYQQKPGKAPKRLIYTASNLQSGVPSRFSGSGSGTEFTLTISSLQPEDFATYYCLQYNSYPLTFGGGTKVEIK
binding: binds
